Measured values from PMC5583172.
These are yes or no findings as the source states them, for the method shown. In cells and extracts the contact can be indirect. Some results given as binding are weak or reduced against the parent protein; the word gives no strength.

By UniProt entry, the sequences of proteins in these tests, tags left out. Where a name states a change or a piece, a line headed by the entry shows the natural chain unless it says otherwise.
UniProt P32121, whole entry: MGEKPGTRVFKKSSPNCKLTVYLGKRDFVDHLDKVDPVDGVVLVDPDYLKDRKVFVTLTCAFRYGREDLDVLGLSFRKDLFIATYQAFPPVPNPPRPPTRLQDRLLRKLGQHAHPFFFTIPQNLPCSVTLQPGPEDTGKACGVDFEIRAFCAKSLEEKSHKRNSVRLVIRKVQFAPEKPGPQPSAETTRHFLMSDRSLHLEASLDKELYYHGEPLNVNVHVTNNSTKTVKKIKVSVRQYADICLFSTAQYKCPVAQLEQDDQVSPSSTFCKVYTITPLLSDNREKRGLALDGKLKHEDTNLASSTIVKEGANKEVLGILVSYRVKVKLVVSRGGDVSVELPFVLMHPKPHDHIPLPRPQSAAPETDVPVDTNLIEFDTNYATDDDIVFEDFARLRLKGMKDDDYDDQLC

Experiments:
Rluc8-MOR [1] = target: Rluc8-MOR (UniProt P35372); test: FRET or BRET; BRET1 in HEK293 cells stably expressing eYFP-beta-arrestin-2 and transfected with Rluc8-MOR; cells activated 5 to 10 min with DAMGO, fentanyl or morphine at 37 °C; ratio of buffer-treated cells subtracted, normalised to maximal DAMGO effect
Rluc8-MOR [2] = target: Rluc8-MOR (UniProt P35372); test: condition: only cells activated with M3G (not with DAMGO, fentanyl or morphine); FRET or BRET; BRET1 in HEK293 cells stably expressing eYFP-beta-arrestin-2 and transfected with Rluc8-MOR; cells activated 5 to 10 min with M3G at 37 °C; ratio of buffer-treated cells subtracted, normalised to maximal DAMGO effect

binding (Rluc8-MOR [1]): binds
binding (Rluc8-MOR [2]): no binding
Substance: eYFP-tagged beta-arrestin-2 (from UniProt P32121 1-409)
